This passage reports binding results from PMC2946606.

The chains behind the UniProt entries cited, without tags or fusion partners. Where a name states a change or a piece, a line headed by the entry shows the natural chain unless it says otherwise.
UniProt P10827: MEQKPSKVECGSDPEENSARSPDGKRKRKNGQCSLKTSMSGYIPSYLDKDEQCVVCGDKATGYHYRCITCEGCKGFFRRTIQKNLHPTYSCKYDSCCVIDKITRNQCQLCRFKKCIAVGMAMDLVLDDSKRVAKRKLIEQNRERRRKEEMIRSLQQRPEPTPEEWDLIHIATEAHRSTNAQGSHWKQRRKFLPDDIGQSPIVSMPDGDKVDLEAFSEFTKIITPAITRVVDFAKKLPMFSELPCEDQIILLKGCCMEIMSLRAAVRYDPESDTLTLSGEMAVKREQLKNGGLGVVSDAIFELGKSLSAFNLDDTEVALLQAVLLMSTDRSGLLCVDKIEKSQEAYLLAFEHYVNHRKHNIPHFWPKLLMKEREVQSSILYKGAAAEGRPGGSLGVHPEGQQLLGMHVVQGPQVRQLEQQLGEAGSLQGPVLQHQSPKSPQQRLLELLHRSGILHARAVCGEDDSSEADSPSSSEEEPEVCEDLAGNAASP
UniProt Q92616: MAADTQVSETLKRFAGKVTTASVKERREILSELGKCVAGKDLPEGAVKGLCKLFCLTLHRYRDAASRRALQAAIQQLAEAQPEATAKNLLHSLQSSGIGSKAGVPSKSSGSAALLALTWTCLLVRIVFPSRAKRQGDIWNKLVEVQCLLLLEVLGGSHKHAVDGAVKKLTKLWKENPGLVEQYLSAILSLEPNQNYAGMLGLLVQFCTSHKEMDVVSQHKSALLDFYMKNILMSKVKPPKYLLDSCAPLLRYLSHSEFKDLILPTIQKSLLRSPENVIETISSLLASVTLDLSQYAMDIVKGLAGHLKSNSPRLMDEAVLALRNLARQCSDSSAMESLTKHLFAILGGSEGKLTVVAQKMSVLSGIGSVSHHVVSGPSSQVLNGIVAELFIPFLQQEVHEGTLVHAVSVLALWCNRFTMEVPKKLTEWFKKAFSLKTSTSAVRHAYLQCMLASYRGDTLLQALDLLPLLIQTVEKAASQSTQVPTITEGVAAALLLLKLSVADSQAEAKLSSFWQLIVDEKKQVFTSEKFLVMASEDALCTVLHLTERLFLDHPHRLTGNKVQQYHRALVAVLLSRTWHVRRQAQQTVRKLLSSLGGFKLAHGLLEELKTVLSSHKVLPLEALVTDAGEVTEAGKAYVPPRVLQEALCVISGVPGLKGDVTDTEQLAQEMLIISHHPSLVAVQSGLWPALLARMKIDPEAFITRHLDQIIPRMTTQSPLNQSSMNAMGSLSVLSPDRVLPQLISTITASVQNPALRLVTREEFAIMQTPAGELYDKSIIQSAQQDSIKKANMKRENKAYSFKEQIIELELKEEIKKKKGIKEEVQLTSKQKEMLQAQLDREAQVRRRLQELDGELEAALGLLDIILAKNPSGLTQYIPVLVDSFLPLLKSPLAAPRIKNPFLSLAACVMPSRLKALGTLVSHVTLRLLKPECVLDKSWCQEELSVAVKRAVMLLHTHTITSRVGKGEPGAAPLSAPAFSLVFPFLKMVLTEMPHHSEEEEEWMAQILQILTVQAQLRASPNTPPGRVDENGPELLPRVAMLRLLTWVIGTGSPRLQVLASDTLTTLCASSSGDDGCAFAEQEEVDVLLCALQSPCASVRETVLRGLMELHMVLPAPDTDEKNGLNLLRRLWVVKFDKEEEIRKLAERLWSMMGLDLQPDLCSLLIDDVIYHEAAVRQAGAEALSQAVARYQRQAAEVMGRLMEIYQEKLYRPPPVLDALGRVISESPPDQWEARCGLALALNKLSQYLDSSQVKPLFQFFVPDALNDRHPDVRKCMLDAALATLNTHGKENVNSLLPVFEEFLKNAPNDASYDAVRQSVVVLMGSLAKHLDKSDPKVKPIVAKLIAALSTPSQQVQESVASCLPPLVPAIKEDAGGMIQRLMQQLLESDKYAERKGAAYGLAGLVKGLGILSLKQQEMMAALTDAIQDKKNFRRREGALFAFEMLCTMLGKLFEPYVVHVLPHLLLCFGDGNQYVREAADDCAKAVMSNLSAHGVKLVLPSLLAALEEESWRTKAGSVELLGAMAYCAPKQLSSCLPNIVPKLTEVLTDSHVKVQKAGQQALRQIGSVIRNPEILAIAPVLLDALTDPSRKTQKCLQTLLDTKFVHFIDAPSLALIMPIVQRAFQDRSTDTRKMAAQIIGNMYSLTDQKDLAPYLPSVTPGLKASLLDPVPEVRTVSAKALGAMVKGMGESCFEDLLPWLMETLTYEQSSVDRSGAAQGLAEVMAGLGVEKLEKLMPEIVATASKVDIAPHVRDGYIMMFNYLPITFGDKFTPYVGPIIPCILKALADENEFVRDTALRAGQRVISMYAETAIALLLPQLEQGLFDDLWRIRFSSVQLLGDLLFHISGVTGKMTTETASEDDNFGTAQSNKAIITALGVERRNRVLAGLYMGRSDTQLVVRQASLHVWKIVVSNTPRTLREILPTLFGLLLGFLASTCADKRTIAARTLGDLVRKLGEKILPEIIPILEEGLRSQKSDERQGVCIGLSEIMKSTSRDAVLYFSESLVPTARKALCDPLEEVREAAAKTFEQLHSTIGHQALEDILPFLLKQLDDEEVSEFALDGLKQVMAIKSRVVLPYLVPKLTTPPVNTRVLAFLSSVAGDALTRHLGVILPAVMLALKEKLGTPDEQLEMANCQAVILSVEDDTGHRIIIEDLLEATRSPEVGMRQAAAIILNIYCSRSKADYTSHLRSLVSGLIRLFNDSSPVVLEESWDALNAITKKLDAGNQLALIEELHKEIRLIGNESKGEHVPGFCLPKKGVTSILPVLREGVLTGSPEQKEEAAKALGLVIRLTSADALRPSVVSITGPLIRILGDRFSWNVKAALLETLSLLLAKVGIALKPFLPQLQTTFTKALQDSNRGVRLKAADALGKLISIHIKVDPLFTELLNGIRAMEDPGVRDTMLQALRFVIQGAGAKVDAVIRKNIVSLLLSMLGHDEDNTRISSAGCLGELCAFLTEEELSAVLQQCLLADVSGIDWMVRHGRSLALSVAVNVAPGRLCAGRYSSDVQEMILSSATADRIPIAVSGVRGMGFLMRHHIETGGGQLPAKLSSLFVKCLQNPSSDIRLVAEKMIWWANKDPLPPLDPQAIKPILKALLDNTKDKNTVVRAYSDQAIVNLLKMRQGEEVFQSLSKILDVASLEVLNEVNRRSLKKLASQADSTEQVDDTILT

No constants are given. Whether binding was seen depends on the method and setting. Binding seen in cells or lysates may run through a third protein. A result given as binding can be weak or reduced; the word gives no strength.

The target in this assay is GST-TRα (UniProt P10827). Nature of the assay: pull-down; GST or GST-fusion protein on glutathione sepharose 4B beads, incubated with in vitro translated 35S-methionine PRIC295 or its fragments, 4°C, 2 hours, gentle shaker; washed, SDS-PAGE, autoradiography; nuclear receptors without and with receptor-specific ligand (10 μM to 100 μM); only the target purified.
As for “PRIC295 (PPARα-interacting cofactor 295), full-length, in vitro translated (from UniProt Q92616 1-2671)”, the binding entry is given as “binds”.

As for “ΔPRIC295^840–1815 (F2), in vitro translated (from UniProt Q92616 840-1815) (domain or fragment)”, the binding entry is reported as “binds”.

Regarding “ΔPRIC295^1–915 (F1), in vitro translated (from UniProt Q92616 1-915) (domain or fragment)”, the binding result was “binds”.
